Drawing on PubChem BioAssay AID2685 (National Center for Advancing Translational Sciences (NCATS), 2010), this text covers cell number change and AC50 for 37 compounds.

The nature of the assay: qHTS Assay for Lipid Storage Modulators in Drosophila S3 Cells.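 For cell number change: cells counted by Cell Tracker Red CMTPX staining in the red channel.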 The settings on record: BODIPY lipid droplet fluorescence, 18-24 h; for cell number change: measured here: cell count max response, cells fed with added oleic acid. An outline of the steps:
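Laser-scanning cytometry quantifies lipid droplet accumulation (500–530 nm total intensity; droplet/cell object ratio) in oleic acid-fed (400 uM added) Drosophila S3 cells treated with a concentration series. 20 uM Triacsin C defined 100% inhibition.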
A general note: In qHTS, concentration-response curves come from the screen itself.

Where [1] appears, read: measured here: lipid fluorescence (Fed channel) AC50, cells fed with added oleic acid.
Setting [2] is: measured here: cell number channel AC50, cells fed with added oleic acid.

Some of the results follow. The main result of the screen is listed elsewhere. These columns were measured beside it and carry no call. Most of these compounds were active or inconclusive in the main read-out, so they are no random draw. The note in brackets gives the kind of curve behind each potency; many fits are weak.

What is called AC50 is the concentration giving half of the maximal activity seen. A higher AC50 goes with activity only at high concentration. With `Cc1ccc(S(=O)(=O)NC(=O)NCc2ccccn2)cc1`, the cell number change came out at 5.21%. For the same compound, under setting [1], the concentration at half-maximal activity (AC50) is 0.651 µM [falling, full curve].

Regarding `O=C(O)c1ccccc1N/N=C/c1c(Sc2nnnn2-c2ccccc2)nc2ccccn2c1=O`, the cell number change was determined as 15.5%.

Consider `Cc1ccc(C)c(N)c1`, for which the AC50 under setting [1] is 25.9 µM [falling, single point].

Turning to `C/C(=N\NC(=O)C1CC1)c1cccc(NC(=O)c2cccc(Cl)c2)c1`, the AC50 under setting [1] is 20.6 µM [falling, partial curve, poor fit].

As for `O=C1CCCN2N=C(SCC(=O)Nc3cccc(F)c3)SC2=N1`, the concentration at half-maximal activity (AC50) reads like this: under setting [2], 1.84 µM [falling, partial curve]; under setting [1], 29.1 µM [falling, single point].

Regarding `Cc1ccc(C(=O)N/C(=C/c2cccnc2)C(=O)N2CCCCCC2)cc1`, the cell number change turned out to be 13%. In addition, under setting [1], the AC50 was 6.51 µM [rising, single point].

On to `CCN1CCN(Cc2coc3ccc(C)cc3c2=O)CC1`, for which the cell number change was found to be 9.44%. Moreover, the AC50 under setting [1] was 18.4 µM [falling, single point].

As to `Nc1cccc(Nc2nc(OC(C(F)(F)F)C(F)(F)F)nc(OC(C(F)(F)F)C(F)(F)F)n2)c1`, the cell number change was -42.5%. Also, the AC50 under setting [2] is 29.1 µM [falling, single point].

On to `COc1ccc(/C=N/NC(=O)c2ccc(O)cc2O)cc1CSc1ccccn1`, for which the cell number change was found to be 6.64%. For the same compound, the AC50 under setting [1] is 8.2 µM [rising, partial curve, poor fit].

Turning to `O=C(c1ccc(N2CCN(C3CC(=O)N(Cc4cccs4)C3=O)CC2)cc1)c1cccnc1` (configuration not stated), the cell number change amounted to 0.678%. Further, under setting [2], the AC50 is 0.461 µM [rising, full curve, poor fit]. Further, the AC50 under setting [1] was 0.326 µM [rising, partial curve, poor fit].

For the compound `Cc1ccc2nc(=O)c(NNc3ccccc3)cnc2c1`, the cell number change was determined as 4.08%. Under setting [1], the AC50 is 0.461 µM [rising, full curve].

With `COc1ccc(N(CC(=O)NCc2ccccn2)S(=O)(=O)c2ccccc2[N+](=O)[O-])c(OC)c1`, the cell number change amounted to 28.8%. Besides, the half-maximal activity concentration (AC50) under setting [2] is 2.91 µM [rising, full curve, poor fit]. The half-maximal activity concentration (AC50) under setting [1] is 3.26 µM [rising, partial curve].

Regarding `CCc1cc2c(NCC3CCCO3)ncnc2s1` (configuration not stated), the cell number change is -35%. The AC50 under setting [2] was 14.6 µM [falling, partial curve].

Take `CCCCNC(=O)C1CCN(S(=O)(=O)N2CCOCC2)CC1`: the cell number change was -0.0963%.

With `CC(CNC(=O)Cn1ccc(N)nc1=O)c1ccccc1` (configuration not stated), the cell number change was -5.69%. In addition, under setting [1], the AC50 is 0.58 µM [falling, partial curve].

As for `Cc1ccc(C)c(N2CCN(C(=O)C3CCCN(S(=O)(=O)c4cnc[nH]4)C3)CC2)c1` (configuration not stated), the cell number change was -40.2%. Also, the AC50 under setting [1] is 1.3 µM [falling, full curve].

Take `O=C(COC(=O)c1cc(-c2cccs2)nn1-c1ccccc1)Nc1ccc(Cl)c([N+](=O)[O-])c1`: the cell number change was determined as 23.2%. Also, the AC50 under setting [1] was 25.9 µM [rising, single point].

Take `C/C(=N\NC(=O)c1ccc(Cn2cc(Br)cn2)o1)c1ccc(NC(=O)c2ccoc2C)cc1`: the cell number change is -36.2%. Also, the AC50 under setting [2] is 8.2 µM [falling, partial curve]. Besides, under setting [1], the AC50 is 0.651 µM [falling, full curve, poor fit].

On to `COc1ccc(NC(=O)CN(C)S(=O)(=O)c2cccc3cccnc23)cc1`, for which, under setting [1], the AC50 was 0.00517 µM [rising, full curve, poor fit].

In the case of `COCC(=O)NC1CCN(C(=O)NCc2ccccc2)CC1`, the cell number change was -40%. The AC50 under setting [2] was 29.1 µM [falling, single point]. For the same compound, under setting [1], the AC50 was 18.4 µM [falling, partial curve].

For the compound `CCC(C)n1cnc2c(c1=O)c1nc3ccccc3nc1n2Cc1ccc2c(c1)OCO2` (configuration not stated), the cell number change is -36.5%. Moreover, under setting [2], the AC50 is 16.4 µM [falling, partial curve, poor fit]. Moreover, the AC50 under setting [1] is 1.84 µM [rising, partial curve].

In the case of `CCCCOc1ccc([N+](=O)[O-])cc1C(=O)O`, the cell number change was determined as 2.6%.

Regarding `CC(C)Oc1ccc(-c2nc(NCC3CCCO3)c3ccccc3n2)cc1` (configuration not stated), the cell number change came to 10.1%. Under setting [1], the AC50 was 0.164 µM [rising, full curve, poor fit].

`COc1ccc(NC(C)=O)cc1NC(C)C(=O)Nc1ccccc1F` (configuration not stated): the cell number change turned out to be 39.7%. Besides, the AC50 under setting [2] is 3.66 µM [rising, full curve].

Turning to `CCOc1cc(CNCCO)ccc1OCC(=O)NC(C)(C)C`, the cell number change is 43.6%. For the same compound, the concentration at half-maximal activity (AC50) under setting [1] is 4.11 µM [falling, partial curve].

On to `COc1cccc(NC(=O)N2CCC(NC(=O)C(Cc3ccccc3OC)NC(C)=O)CC2)c1` (configuration not stated), for which the cell number change is -9.68%. Besides, the AC50 under setting [1] was 8.2 µM [falling, partial curve, poor fit].

With `Cc1ccc(-c2nc(CNC(=O)c3ccco3)cs2)cc1`, the cell number change is -34.5%. Further, the AC50 under setting [2] was 13 µM [falling, single point]. Besides, the half-maximal activity concentration (AC50) under setting [1] was 13 µM [falling, partial curve, poor fit].

In the case of `COc1ccc(C(=O)Nc2c(N)nc(SCC(=O)Nc3ccc(NC(C)=O)cc3)[nH]c2=O)cc1`, the cell number change amounted to 4.9%.

Turning to `O=S(=O)(c1ccc(Oc2ccc(Cl)cc2)nc1)N1CCOCC1`, the cell number change came to 82%. Moreover, the AC50 under setting [2] was 7.31 µM [rising, partial curve].

`CCOc1cc(C(=O)Nc2ccon2)cc(OCC)c1OCC`: the cell number change came out at 32.1%. Also, the AC50 under setting [2] was 3.66 µM [rising, single point]. Also, the AC50 under setting [1] was 9.2 µM [rising, single point].

Consider `CCCCNS(=O)(=O)c1ccc2nc(-c3cccnc3)cc(C(=O)NCCCOCC)c2c1`, for which the cell number change is -6.52%.

As to `COCCN(C(=O)COC(=O)CCc1nc2ccccc2s1)c1c(N)n(Cc2ccccc2)c(=O)[nH]c1=O`, the cell number change stood at 9.28%.

In the case of `CCOC(=O)C1(CCc2ccccc2)CCN(C(=O)CN2C(=O)CSC2=O)CC1`, the cell number change is 29.2%. The AC50 under setting [2] was 0.00517 µM [rising, full curve, poor fit].

For `CCOc1ccc(OCCCC(=O)NCCc2ccc(OC)cc2)cc1`, the cell number change worked out at 7.03%. For the same compound, under setting [1], the AC50 was 18.4 µM [falling, single point].

Consider `CC1CN(CC(O)COc2ccc(C#N)cc2)CCN1CC(O)COc1ccc(C#N)cc1` (configuration not stated), for which the cell number change amounted to 14.7%. Further, the half-maximal activity concentration (AC50) under setting [1] was 6.51 µM [rising, single point].

Turning to `Cc1cc(-c2nnc(SCCC(=O)Nc3ccccc3)o2)no1`, the cell number change is -15.3%. In addition, under setting [1], the half-maximal activity concentration (AC50) was 8.2 µM [falling, single point].

As for `O=C(COc1coc(CN2CCc3ccccc3C2)cc1=O)Nc1ccc([N+](=O)[O-])cc1`, the cell number change was -75%. Further, the AC50 under setting [2] is 3.66 µM [falling, full curve].
